# Test results taken from article PMC5539145.
# By UniProt entry, the sequences of proteins in these tests, tags left out. Residues count along the entry.
# UniProt P08138, residues 330-427: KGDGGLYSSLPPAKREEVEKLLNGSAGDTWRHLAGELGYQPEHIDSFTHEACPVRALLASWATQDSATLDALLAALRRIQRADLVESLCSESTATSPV
# Results are given in words; binding and its absence hold for the method and conditions named. Some binding calls cover weakened binding; strength is not graded here.
# Target: p75 neurotrophin receptor death domain (p75NTR DD) (UniProt P08138)
# Assay: NMR titration; unlabeled TRADD DD added to 15N-labelled p75NTR DD monomer; 2D 1H-15N HSQC; 28 °C in water; with dithiothreitol, without phosphate ions; TRADD DD ~0.3 mM, molar ratio TRADD DD to p75NTR DD ~1:2; both purified
binder,measurement,value
"TRADD DD (199-312), C-terminal death domain of the TNFR1-associated death domain protein (domain or fragment, UniProt Q15628 199-312) AQTFLFQGQPVVNRPLSLKDQQTFARSVGLKWRKVGRSLQRGCRALRDPALDSLAYEYEREGLYEQAFQLLRRFVQAEGRRATLQRLVEALEENELTSLAEDLLGLTDPNGGLA",binding,binds weakly
